# Reference: the supplement of paper PMC11150407
# Hit rate of the full screen: of about 3,000 compounds, about 45 (2%) showed an effect of 50% or more. This is one part of the list.
# Tested on: MOLM1 and UCSD/AML1 (averaged)
# Assay: cell viability relative to DMSO control (POC); higher = less growth inhibition
# Details: 1 µM; 72 h
# Method: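 Primary viability screen in the 3q26 EVI1-high AML cell lines MOLM1 and UCSD/AML1, compounds at 1 uM for 72 h. ATP CellTiter-Glo read-out given as percent viable over DMSO control (POC), averaged over duplicates. This mapping covers the TimTec NDL-3000 natural derivative library, whose compounds are identified by TimTec catalogue codes (ST...).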
row,Compound,cell viability [%]
1,Cc1oc(-c2cccc(Br)c2)nc1CSc1nc2c(=O)[nH]cnc2n1C,103
2,CC1CCCN(C(=O)CSc2nc3ccccc3c(=O)[nH]2)C1 (stereo not given),103
3,O=C(Nc1ccccc1[N+](=O)[O-])C1Cc2ccccc2CN1S(=O)(=O)c1ccc(F)cc1 (stereo not given),97.1
4,CCc1ccccc1NC(=O)Cn1c(=O)cc(C(=O)N2CCc3ccccc3C2)c2ccccc21,99.3
5,COc1cc(C2NC(=O)C(=O)/C2=C(\O)c2ccc(OC)c(OC)c2)ccc1O (stereo not given),105
6,CCc1cccc(C)c1NC(=O)CSc1nc2c(=O)[nH]cnc2n1-c1ccc(C)cc1,108
7,Cc1ccc2oc(=O)c(C)c(O)c2c1,95.7
8,CCCCOc1ccc(/C=C2/Oc3ccc(C(=O)OC)cc3C2=O)cc1OC,103
9,COc1cc(C2C(C(=O)OC3CCCCC3)=C(C)NC3=C2C(=O)CC(c2ccccc2)C3)cc(Br)c1O (stereo not given),93.5
10,CCCNC(=O)c1cc(=O)n(CC(=O)Nc2ccc(F)c(Cl)c2)c2ccccc12,91.9
11,Cc1ccc(-n2c(SCc3nc(-c4ccccc4Cl)oc3C)nc3c(=O)[nH]cnc32)cc1,116
12,COC(=O)C1Cc2c([nH]c3ccccc23)C(c2cccc(OC)c2OC)N1 (stereo not given),111
13,O=C(CCNc1n[nH]c(=O)[nH]c1=O)N/N=C/c1cccnc1,93
14,NNC(=O)C1Cc2c([nH]c3ccccc23)CN1 (stereo not given),99.6
15,COc1ccc2cc(-c3ccccc3Cl)c(=O)oc2c1,99.2
16,CC(C)c1ccc(/C=C/C(=O)O)cc1,99.9
17,Nc1ncnc2nc(SCc3ccccc3Cl)[nH]c12,88.8
18,Cc1ccc(-n2c(SCc3nc(-c4ccccc4)oc3C)nc3c(=O)[nH]cnc32)cc1,106
19,CCOc1ccc2oc(=O)cc(CN3CCN(CC(=O)N4CCC(C)CC4)CC3)c2c1,95.3
20,Cc1ccc2c(CN3CCN(CC(=O)Nc4ccc(F)cc4C)CC3)cc(=O)oc2c1,99.8
21,COc1cc(C2NC(=O)N(C)C(C)=C2C(=O)OCCOc2ccccc2)cc(Cl)c1O (stereo not given),109
22,O=c1c(O)c(-c2ccccc2)oc2cc(O)ccc12,100
23,COC(=O)CNC(=O)CN(c1ccc(OC)cc1OC)S(=O)(=O)c1ccccc1,94.1
24,Cn1c(SCC(=O)Nc2cccc(C(F)(F)F)c2)nc2c(=O)[nH]cnc21,89.5
25,CCc1ccc2oc(=O)cc(CN3CCN(c4ccccn4)CC3)c2c1,102

row,Compound,cell viability [%]
1,CCOc1cc(C(=O)Nc2c(C)cccc2C)cc(OCC)c1OCC,91.9
2,COc1ccccc1/C=C/C(=O)c1ccc2c(c1)OCO2,101
3,Cc1[nH]c2ccc(OCc3ccccc3)cc2c1CCNC(=O)COc1ccc(F)cc1F,99.5
4,CC12CCC(=O)C=C1CCC1C2CCC2(C)C1CC[C@@]21OCOC12COCO2 (stereo not given in full),94.6
5,COc1ccc(C(=O)Nc2nc(CC(=O)O)cs2)cc1OC,87.1
6,O=C1CCc2cc(S(=O)(=O)N3CCc4ccccc4C3)ccc2N1,96.5
7,Cc1[nH]c2ccccc2c1CCNC(=O)c1ccccc1F,104
8,Cn1c(SCC(=O)Nc2cccc(Br)c2)nc2c(=O)[nH]cnc21,103
9,CCOc1ccc(-c2nc(CSc3nc4c(=O)[nH]c(C)nc4n3C)c(C)o2)cc1OC,100
10,COc1cc(C2C3CCCCC3(O)CCN2Cc2ccccc2Cl)cc(OC)c1OC (stereo not given),92.4
11,Nc1c(C(=O)N2CCC[C@H]2C(=O)O)sc2nc(-c3ccc(F)cc3)cc(-c3ccccc3)c12,92.6
12,CCOC(=O)CNC(=O)c1ccc(OC)cc1,105
13,COc1cc(/C(C)=N/N=C2\NC(=O)C(CC(=O)O)S2)cc(OC)c1OC (stereo not given),98.2
14,COc1cc(C(=O)N2CCN(c3cccc(C)c3C)CC2)cc(OC)c1OC,12.5
15,CC(C)C(Nc1ncnc2ccccc12)C(=O)O (stereo not given),101
16,COc1ccc2c(O)c([N+](=O)[O-])c(=O)oc2c1,105
17,COc1cccc(OCCN=Cc2c(O)c(O)c(C(C)C)c3cc(C)c(-c4c(C)cc5c(C(C)C)c(O)c(O)c(C=NCCOc6cccc(OC)c6)c5c4O)c(O)c23)c1,106
18,COc1cc(C(=O)CC2(O)C(=O)N(Cc3cccc4ccccc34)c3ccccc32)cc(OC)c1OC (stereo not given),106
19,COc1ccc2c(c1)c(CC(=O)NCCOc1ccc(Cl)cc1)c(C)n2C(=O)c1ccc(Cl)cc1,87
20,COCCOC(=O)c1c(C)n(CCOc2cccc(OC)c2)c2c1cc(O)c1ccccc12,99.9
21,COc1cc(-c2nnc(NC(=O)c3cccs3)o2)cc(OC)c1OC,100
22,CC(=O)NC(Cc1ccc(O)cc1)C(N)=O (stereo not given),100
23,CCOc1ccc2ccccc2c1/C=N/NC(=O)COc1cc(C)ccc1C(C)C,103
24,COC(=O)CCC(C)C1CC=C2C3=CCC4CC(OC(=O)OC)CCC4(C)C3CC(=O)C21C (stereo not given),113
25,O=C(/C=C/c1cccc(Cl)c1)c1ccc(OC(=O)c2cccc([N+](=O)[O-])c2)cc1,102

# A few values from above.
# `COc1ccc2cc(-c3ccccc3Cl)c(=O)oc2c1` | cell viability [%]: 99.2
# `COc1ccccc1/C=C/C(=O)c1ccc2c(c1)OCO2` | cell viability [%]: 101
